Experimental data as given in the supplement of paper PMC6411743.
± gives the standard deviation of the averaged measurements. This is one part of the list.

Sequences of proteins named here, by UniProt entry; tags and fusion partners are left off. A change or cut given only in a name is not applied to a line headed by its entry.
UniProt Q96HS1, whole entry: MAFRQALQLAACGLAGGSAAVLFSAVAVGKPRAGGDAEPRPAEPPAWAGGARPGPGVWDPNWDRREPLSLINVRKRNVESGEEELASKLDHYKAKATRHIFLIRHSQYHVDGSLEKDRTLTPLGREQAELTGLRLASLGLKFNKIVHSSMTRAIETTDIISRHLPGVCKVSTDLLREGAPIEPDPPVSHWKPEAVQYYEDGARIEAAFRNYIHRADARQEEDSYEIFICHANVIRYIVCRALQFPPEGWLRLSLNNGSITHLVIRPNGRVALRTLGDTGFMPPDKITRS
UniProt Q96A33: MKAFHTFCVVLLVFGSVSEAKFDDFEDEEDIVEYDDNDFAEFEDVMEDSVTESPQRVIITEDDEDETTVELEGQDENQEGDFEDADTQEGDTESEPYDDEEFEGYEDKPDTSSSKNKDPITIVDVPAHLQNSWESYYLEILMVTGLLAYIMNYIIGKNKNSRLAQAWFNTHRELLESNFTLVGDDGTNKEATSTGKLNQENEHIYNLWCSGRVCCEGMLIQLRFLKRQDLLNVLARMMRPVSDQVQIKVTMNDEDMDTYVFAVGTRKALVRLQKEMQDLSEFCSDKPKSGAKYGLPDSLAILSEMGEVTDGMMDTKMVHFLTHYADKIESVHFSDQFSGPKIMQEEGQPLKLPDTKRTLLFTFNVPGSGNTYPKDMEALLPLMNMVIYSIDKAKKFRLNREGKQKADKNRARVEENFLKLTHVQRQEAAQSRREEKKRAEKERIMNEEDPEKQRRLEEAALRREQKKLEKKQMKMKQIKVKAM
UniProt Q96DA2: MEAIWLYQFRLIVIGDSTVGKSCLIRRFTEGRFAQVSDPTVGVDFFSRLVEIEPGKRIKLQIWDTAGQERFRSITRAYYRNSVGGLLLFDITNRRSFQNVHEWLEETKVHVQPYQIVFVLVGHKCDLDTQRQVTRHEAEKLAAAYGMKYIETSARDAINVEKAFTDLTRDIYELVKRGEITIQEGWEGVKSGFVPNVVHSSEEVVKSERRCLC
UniProt Q96BD8: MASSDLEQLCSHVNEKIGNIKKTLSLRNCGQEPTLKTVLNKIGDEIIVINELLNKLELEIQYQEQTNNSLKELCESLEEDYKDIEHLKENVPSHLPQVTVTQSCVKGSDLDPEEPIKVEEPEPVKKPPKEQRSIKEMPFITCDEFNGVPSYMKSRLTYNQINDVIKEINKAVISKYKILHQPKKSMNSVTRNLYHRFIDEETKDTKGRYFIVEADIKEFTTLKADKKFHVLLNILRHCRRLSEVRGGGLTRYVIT
UniProt Q96CS2: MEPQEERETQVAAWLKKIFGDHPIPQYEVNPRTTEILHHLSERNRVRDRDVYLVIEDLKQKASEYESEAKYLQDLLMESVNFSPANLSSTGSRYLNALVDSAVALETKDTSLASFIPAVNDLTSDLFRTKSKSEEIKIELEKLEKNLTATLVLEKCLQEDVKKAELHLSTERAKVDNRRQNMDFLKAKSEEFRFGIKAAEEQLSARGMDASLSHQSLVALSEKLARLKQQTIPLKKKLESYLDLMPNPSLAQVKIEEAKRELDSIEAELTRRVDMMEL
UniProt Q92619: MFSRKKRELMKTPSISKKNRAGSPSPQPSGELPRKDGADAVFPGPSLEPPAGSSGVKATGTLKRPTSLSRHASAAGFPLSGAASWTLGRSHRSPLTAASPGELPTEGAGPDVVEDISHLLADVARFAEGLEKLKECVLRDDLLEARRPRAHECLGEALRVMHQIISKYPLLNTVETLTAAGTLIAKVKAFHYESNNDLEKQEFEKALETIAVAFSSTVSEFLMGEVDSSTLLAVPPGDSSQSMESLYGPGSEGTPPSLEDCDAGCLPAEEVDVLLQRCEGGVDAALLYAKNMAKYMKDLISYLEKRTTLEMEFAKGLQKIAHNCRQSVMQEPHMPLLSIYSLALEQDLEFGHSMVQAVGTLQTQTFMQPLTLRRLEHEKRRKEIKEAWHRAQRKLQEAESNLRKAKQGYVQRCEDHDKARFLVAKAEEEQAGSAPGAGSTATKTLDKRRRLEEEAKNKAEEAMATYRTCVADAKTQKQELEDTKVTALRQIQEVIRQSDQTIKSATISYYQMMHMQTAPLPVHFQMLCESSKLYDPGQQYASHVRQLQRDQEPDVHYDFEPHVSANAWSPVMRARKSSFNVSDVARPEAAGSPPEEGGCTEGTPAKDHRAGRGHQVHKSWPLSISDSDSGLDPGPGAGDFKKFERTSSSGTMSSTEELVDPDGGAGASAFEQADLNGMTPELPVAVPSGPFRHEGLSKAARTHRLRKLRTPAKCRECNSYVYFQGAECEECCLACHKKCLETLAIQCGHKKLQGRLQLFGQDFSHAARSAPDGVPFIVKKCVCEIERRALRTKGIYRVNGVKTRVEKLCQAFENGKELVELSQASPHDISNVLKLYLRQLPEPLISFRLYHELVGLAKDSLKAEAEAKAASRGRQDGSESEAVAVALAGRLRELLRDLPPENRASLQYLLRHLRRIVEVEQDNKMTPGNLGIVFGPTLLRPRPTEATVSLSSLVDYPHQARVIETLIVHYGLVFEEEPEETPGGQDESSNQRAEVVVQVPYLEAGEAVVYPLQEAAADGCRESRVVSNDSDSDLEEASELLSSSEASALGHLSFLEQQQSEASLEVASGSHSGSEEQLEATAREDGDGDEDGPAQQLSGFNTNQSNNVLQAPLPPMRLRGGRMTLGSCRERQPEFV
UniProt Q8WVM7: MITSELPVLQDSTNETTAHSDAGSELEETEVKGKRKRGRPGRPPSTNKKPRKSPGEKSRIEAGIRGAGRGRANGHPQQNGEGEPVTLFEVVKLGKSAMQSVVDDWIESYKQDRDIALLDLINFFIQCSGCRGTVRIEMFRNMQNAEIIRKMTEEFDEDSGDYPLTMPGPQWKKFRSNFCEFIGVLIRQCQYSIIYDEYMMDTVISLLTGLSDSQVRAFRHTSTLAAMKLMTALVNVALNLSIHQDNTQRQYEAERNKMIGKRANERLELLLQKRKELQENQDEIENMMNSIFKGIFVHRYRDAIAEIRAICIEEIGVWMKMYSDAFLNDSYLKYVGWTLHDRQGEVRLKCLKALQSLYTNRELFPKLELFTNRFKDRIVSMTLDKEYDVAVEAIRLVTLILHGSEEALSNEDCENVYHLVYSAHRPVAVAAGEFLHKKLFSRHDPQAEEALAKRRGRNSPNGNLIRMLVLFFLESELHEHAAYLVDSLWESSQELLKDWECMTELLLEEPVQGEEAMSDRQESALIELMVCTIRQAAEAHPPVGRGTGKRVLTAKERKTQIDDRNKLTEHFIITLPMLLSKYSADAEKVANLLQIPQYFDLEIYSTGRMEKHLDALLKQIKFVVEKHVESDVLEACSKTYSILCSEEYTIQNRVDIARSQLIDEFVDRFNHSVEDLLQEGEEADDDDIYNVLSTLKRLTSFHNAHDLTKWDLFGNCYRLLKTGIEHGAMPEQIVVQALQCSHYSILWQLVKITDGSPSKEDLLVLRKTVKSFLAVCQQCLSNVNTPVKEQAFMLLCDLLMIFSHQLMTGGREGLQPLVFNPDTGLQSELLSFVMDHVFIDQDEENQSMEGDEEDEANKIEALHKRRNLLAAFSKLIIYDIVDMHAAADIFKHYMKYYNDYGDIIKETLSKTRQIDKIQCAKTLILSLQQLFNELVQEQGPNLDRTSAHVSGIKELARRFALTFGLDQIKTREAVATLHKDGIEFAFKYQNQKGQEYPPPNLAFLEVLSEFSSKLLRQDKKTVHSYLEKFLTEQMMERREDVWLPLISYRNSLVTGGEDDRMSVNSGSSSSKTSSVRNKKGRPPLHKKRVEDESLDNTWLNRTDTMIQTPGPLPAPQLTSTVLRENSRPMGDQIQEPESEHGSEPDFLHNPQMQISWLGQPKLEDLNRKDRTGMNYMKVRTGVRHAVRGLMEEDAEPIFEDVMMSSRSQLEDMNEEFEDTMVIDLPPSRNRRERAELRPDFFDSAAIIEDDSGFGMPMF
UniProt Q96GM5, whole entry: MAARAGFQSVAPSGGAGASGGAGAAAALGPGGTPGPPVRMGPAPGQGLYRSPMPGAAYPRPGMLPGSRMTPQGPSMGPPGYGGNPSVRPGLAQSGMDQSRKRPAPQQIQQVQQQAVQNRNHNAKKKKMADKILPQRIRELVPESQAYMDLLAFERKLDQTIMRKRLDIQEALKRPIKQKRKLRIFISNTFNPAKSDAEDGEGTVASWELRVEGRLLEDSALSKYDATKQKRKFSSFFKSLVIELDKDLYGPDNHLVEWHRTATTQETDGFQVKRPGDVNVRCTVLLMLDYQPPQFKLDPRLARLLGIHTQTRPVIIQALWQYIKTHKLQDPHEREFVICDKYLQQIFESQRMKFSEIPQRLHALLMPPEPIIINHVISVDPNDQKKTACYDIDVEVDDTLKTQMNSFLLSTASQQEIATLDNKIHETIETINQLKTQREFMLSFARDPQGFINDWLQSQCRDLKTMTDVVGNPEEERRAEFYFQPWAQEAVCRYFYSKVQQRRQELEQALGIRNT
UniProt Q92990: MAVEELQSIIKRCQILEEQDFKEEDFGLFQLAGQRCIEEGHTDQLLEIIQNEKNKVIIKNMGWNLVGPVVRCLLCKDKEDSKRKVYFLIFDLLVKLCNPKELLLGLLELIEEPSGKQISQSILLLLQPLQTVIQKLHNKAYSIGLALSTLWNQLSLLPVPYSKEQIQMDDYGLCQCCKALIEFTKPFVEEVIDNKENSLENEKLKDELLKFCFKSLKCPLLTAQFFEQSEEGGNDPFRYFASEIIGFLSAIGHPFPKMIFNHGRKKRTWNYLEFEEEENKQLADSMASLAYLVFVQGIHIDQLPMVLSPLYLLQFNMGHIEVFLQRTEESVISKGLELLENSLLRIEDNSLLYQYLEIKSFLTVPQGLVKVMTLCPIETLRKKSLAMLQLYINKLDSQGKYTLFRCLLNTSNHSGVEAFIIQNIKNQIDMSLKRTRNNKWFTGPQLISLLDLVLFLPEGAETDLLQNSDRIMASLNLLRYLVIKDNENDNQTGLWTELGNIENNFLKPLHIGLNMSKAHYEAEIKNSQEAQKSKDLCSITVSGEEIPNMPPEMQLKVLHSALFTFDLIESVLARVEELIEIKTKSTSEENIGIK
UniProt Q96CX6, whole entry: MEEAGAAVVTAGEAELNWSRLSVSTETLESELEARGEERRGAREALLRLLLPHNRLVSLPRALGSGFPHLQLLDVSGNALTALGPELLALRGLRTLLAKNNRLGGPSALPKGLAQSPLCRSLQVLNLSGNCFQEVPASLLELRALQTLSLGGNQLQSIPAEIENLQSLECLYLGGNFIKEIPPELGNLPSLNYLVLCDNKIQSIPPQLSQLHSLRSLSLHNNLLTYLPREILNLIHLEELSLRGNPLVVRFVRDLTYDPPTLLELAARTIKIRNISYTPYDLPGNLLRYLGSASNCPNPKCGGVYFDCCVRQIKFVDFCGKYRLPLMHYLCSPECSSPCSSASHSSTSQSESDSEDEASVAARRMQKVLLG
UniProt Q96IX5: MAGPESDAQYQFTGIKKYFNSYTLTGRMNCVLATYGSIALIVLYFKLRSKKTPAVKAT
UniProt Q92979: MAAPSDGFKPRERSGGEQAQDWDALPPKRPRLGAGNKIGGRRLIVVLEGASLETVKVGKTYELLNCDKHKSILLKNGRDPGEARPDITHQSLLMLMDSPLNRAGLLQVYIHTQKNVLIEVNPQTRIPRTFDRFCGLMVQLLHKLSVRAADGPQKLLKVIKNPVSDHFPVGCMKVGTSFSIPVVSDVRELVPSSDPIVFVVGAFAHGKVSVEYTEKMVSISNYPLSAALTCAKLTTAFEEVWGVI
UniProt Q969Z0: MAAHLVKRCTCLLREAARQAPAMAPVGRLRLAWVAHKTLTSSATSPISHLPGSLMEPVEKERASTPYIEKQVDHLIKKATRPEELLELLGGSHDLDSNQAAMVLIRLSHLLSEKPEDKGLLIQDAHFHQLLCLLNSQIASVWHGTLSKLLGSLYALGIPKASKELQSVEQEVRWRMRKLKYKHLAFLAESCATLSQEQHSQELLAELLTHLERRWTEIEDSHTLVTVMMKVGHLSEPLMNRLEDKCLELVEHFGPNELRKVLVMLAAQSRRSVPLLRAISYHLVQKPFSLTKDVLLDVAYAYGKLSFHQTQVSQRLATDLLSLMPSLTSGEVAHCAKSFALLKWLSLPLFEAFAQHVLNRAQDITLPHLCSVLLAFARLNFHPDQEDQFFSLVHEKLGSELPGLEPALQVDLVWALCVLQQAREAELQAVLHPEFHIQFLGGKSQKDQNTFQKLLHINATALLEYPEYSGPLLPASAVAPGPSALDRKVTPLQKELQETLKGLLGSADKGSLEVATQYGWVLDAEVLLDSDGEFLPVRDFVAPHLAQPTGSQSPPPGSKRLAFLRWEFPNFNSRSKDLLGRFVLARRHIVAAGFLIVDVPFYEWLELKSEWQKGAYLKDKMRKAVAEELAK

Compound: Nc1nc2c(ncn2[C@@H]2O[C@H](COP(=O)(O)OP(=O)(O)OP(=O)(O)O)[C@@H](O)[C@H]2O)c(=O)[nH]1 [guanosine triphosphate]
Test: NP40-soluble protein abundance relative to vehicle (solubility fold change) (ratio); higher = more soluble protein in presence of GTP
Outline: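 Eight concentrations, 0.1 to 10 mM, were tested on Jurkat crude lysate for 10 min at room temperature and then 3 min at 37 °C, in three independent experiments. The lysate was solubilised with 0.8% NP40 and benzonase, ultracentrifuged, and the supernatant TMT-labelled for LC-MS/MS. Each value is the fold change against the detergent-processed vehicle in its own replicate, from vsn-normalised intensities.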

Target	NP40-soluble protein abundance (concentration: 0.1mM)	NP40-soluble protein abundance (concentration: 0.5mM)	NP40-soluble protein abundance (concentration: 1mM)	NP40-soluble protein abundance (concentration: 2mM)	NP40-soluble protein abundance (concentration: 4mM)	NP40-soluble protein abundance (concentration: 6mM)	NP40-soluble protein abundance (concentration: 8mM)	NP40-soluble protein abundance (concentration: 10mM)
UniProt Q96EM0	0.976 ± 0.19	0.971 ± 0.15	0.869 ± 0.093	0.892 ± 0.11	1.02 ± 0.026	0.929 ± 0.095	0.85 ± 0.16	0.895 ± 0.085
PDLIM5 (UniProt Q96HC4)	0.93 ± 0.015	0.941 ± 0.041	0.945 ± 0.034	0.905 ± 0.044	0.885 ± 0.057	0.899 ± 0.062	0.894 ± 0.029	0.897 ± 0.036
PGAM5 (UniProt Q96HS1)	1.03 ± 0.034	1.09 ± 0.073	1.18 ± 0.14	1.4 ± 0.26	1.67 ± 0.38	1.79 ± 0.45	1.86 ± 0.4	1.95 ± 0.47
UniProt Q96JJ7	1.03 ± 0.048	1.01 ± 0.036	0.961 ± 0.037	0.95 ± 0.035	0.925 ± 0.013	0.913 ± 0.0099	0.88 ± 0.038	0.901 ± 0.05
CCDC47 (UniProt Q96A33)	0.98 ± 0.015	1.03 ± 0.034	0.947 ± 0.055	0.965 ± 0.058	0.927 ± 0.054	0.971 ± 0.056	0.941 ± 0.046	0.971 ± 0.056
RAB39B (UniProt Q96DA2)	1.19 ± 0.072	1.13 ± 0.12	0.932 ± 0.06	1.02 ± 0.12	0.963 ± 0.15	0.926 ± 0.093	0.835 ± 0.065	0.821 ± 0.13
UniProt Q8WUQ7 and related entries	0.975 ± 0.11	1.02 ± 0.12	0.967 ± 0.13	1.02 ± 0.14	1.09 ± 0.13	1.12 ± 0.095	1.12 ± 0.03	1.19 ± 0.11
ZNF622 (UniProt Q969S3)	1.03 ± 0.084	1.03 ± 0.14	1.11 ± 0.17	1.15 ± 0.11	1.16 ± 0.14	1.24 ± 0.077	1.31 ± 0.18	1.42 ± 0.18
UniProt Q93008 and related entries	1.08 ± 0.054	1.09 ± 0.087	1 ± 0.062	1.06 ± 0.12	1.04 ± 0.091	1.01 ± 0.09	0.992 ± 0.071	0.975 ± 0.089
UniProt Q96BD8	0.949 ± 0.1	0.858 ± 0.087	1.04 ± 0.15	0.976 ± 0.081	0.9603 ± 0.0096	0.936 ± 0.024	0.925 ± 0.079	0.989 ± 0.042
UniProt Q96CS2 and related entries	1.03 ± 0.17	0.915 ± 0.15	1.24 ± 0.32	1.19 ± 0.11	1.09 ± 0.17	1.21 ± 0.12	1.06 ± 0.22	1.39 ± 0.58
MRPL24 (UniProt Q96A35)	1.13 ± 0.12	1.22 ± 0.23	1.43 ± 0.4	1.59 ± 0.52	1.66 ± 0.67	1.5 ± 0.54	1.55 ± 0.57	1.37 ± 0.52
UniProt Q93052 and related entries	0.985 ± 0.047	0.946 ± 0.086	0.944 ± 0.072	0.906 ± 0.071	0.884 ± 0.063	0.896 ± 0.081	0.906 ± 0.083	0.901 ± 0.09
UniProt Q96J02 and related entries	1.08 ± 0.078	1.09 ± 0.042	1.08 ± 0.062	1.1 ± 0.078	1.04 ± 0.077	1.07 ± 0.051	1.06 ± 0.052	1.04 ± 0.056
UniProt Q92619	1.01 ± 0.013	1.03 ± 0.03	1.03 ± 0.031	1.02 ± 0.021	1.02 ± 0.029	1.01 ± 0.021	1.02 ± 0.036	0.995 ± 0.04
UniProt Q8WVM7 and related entries	1.05 ± 0.04	1.08 ± 0.07	1.04 ± 0.014	1.09 ± 0.064	1.04 ± 0.081	1.03 ± 0.068	1.01 ± 0.073	0.99 ± 0.046
UniProt Q92974 and related entries	1.03 ± 0.015	1.05 ± 0.023	1.02 ± 0.032	1.04 ± 0.052	1.08 ± 0.075	1.07 ± 0.082	1.09 ± 0.065	1.05 ± 0.039
UniProt Q96CU9 and related entries	1.09 ± 0.048	1.08 ± 0.07	0.999 ± 0.07	1.02 ± 0.088	1.04 ± 0.076	1.06 ± 0.11	1.02 ± 0.046	0.976 ± 0.06
UniProt Q8WUF8 and related entries	1.03 ± 0.14	1.03 ± 0.051	0.978 ± 0.14	1 ± 0.044	0.966 ± 0.028	1.01 ± 0.014	0.959 ± 0.021	0.99 ± 0.023
SMARCD1 (UniProt Q96GM5)	1.06 ± 0.036	1.11 ± 0.065	1.09 ± 0.089	1.18 ± 0.16	1.18 ± 0.17	1.18 ± 0.19	1.15 ± 0.18	1.16 ± 0.17
GLMN (UniProt Q92990)	1.02 ± 0.084	0.988 ± 0.048	0.964 ± 0.063	0.968 ± 0.059	0.941 ± 0.09	0.938 ± 0.082	0.904 ± 0.065	0.888 ± 0.082
NSUN4 (UniProt Q96CB9)	1.2 ± 0.032	1.2 ± 0.022	0.876 ± 0.031	1.07 ± 0.11	1.07 ± 0.075	0.988 ± 0.029	0.83642 ± 0.00078	0.825 ± 0.13
LRRC58 (UniProt Q96CX6)	0.999 ± 0.054	0.971 ± 0.033	0.919 ± 0.037	0.908 ± 0.047	0.907 ± 0.049	0.869 ± 0.043	0.872 ± 0.08	0.847 ± 0.037
UniProt Q96IX5	0.871 ± 0.1	0.881 ± 0.086	0.988 ± 0.15	1.03 ± 0.11	1.06 ± 0.1	1.01 ± 0.13	0.889 ± 0.099	1.03 ± 0.17
EMG1 (UniProt Q92979)	0.991 ± 0.026	0.978 ± 0.038	0.9176 ± 0.0086	0.969 ± 0.074	1.07 ± 0.035	1.06 ± 0.024	1.04 ± 0.093	1.1 ± 0.028
TBRG4 (UniProt Q969Z0)	0.97 ± 0.033	0.994 ± 0.016	0.954 ± 0.041	0.945 ± 0.038	0.948 ± 0.049	0.915 ± 0.03	0.917 ± 0.045	0.918 ± 0.087
UniProt Q92759 and related entries	1.06 ± 0.11	1.02 ± 0.17	0.993 ± 0.068	1.04 ± 0.29	1.07 ± 0.1	1.04 ± 0.1	1.05 ± 0.18	1.06 ± 0.14
GMPPA (UniProt Q96IJ6)	1.03 ± 0.028	1.04 ± 0.079	0.992 ± 0.041	0.967 ± 0.054	0.999 ± 0.048	0.972 ± 0.067	0.95 ± 0.03	0.937 ± 0.046
HDAC2 (UniProt Q92769)	0.967 ± 0.017	1.02 ± 0.012	0.999 ± 0.054	0.994 ± 0.039	1.02 ± 0.025	1.05 ± 0.083	1.07 ± 0.068	1.04 ± 0.043
UniProt Q92538 and related entries	1.04 ± 0.024	1.06 ± 0.013	1.02 ± 0.027	1.04 ± 0.018	1 ± 0.044	1.01 ± 0.03	0.998 ± 0.051	0.989 ± 0.017

Just NP40-soluble protein abundance (concentration: 8mM) (two entries from above):
Target,NP40-soluble protein abundance (concentration: 8mM)
UniProt Q92759 and related entries,1.05 ± 0.18
GMPPA (UniProt Q96IJ6),0.95 ± 0.03
